# Experimental data taken from patent publication US5972379A, “Liposome composition and method for administering a quinolone” (Sequus Pharmaceuticals, Inc., priority 1998, dated 1999).
# Assays:
# [1] = Remote drug loading into PEG-coated liposomes; assay type: physicochemical; settings: lipid/drug ratio 8, as stated in leakage test
# Experimental: Liposome having a surface-coating of polyethylene glycol were prepared by dissolving 661.1 mg hydrogenated soy phosphatidylcholine (HSPC), 220.5 mg cholesterol and 220.5 mg of polyethylene glycol derivatized to disteroyl phosphatidylethanolamine (PEG-DSPE) in 10 ml chloroform in a 250 mL round bottom flask. The chloroform was removed using a flash evaporator under reduced pressure until dryness. To the thin lipid film on the surface of the flask was added 15 ml of a solution of 250 mM ammonium sulfate, pH 5.5 and the lipids were dispersed in the solution by vigorous shaking for approximately 30 minutes at 60° C. The multilamellar vesicles obtained were extruded 6 times through a 0.4 μm pore-size Nucleopore polycarbonate filter, 6 times through a 0.1 μm polycarbonate filter and 3 times through a 0.05 μm polycarbonate filter using a stainless steel extrusion cell under a pressure of 200-400 psig. The extrusion process was carried out at 60° C. […] The liposomes were then dialyzed overnight against 4 liters 10% sucrose to remove external ammonium sulfate at 4° C.
# The mixtures were incubated at 60° C. for 30 minutes. After incubation, the mixtures were immediately cooled in an ice bath. Aliquot samples were taken and the percent of drug loading was determined by using a Sephadex G-50 column (1.0×19 cm). […]
# [2] = 24 hours, 37° C., rat plasma, diluted 1/50
smiles,measurement,setting,value
"O=C(O)c1cn(C2CC2)c2cc(N3CCNCC3)c(F)cc2c1=O [ciprofloxacin, 1-cyclopropyl-6-fluoro-1,4-dihydro-4-oxo-7-(1-piperazinyl)-3-quinoline carboxylic acid]",ciprofloxacin concentration in liposome,[1],approximately 75 mg/ml
same,drug leaked from the liposomes in plasma,[2],85%
